Test results: US9926581B2, “Fagopyritol synthase genes and uses thereof” (Cornell Research Foundation, Inc., priority 2002, dated 2018)

Tested on: soybean explants
Experiment: Soybean explant feeding 3 days with 50 mM cyclitol in 1% sucrose, slow drying time course, soluble carbohydrates in axis, cotyledon, seed coat and leaf
[1] = 3 days transport of sucrose (1%) and D-pinitol (50 mM), after 4 days slow drying, Rep 1
[2] = 3 days transport of sucrose (1%) and D-pinitol (50 mM), after 4 days slow drying, Rep 2
[3] = 3 days transport of sucrose (1%) and D-pinitol (50 mM), after 14 days slow drying, Rep 1
[4] = 3 days transport of sucrose (1%) and D-pinitol (50 mM), after 14 days slow drying, Rep 2
[5] = 3 days transport of sucrose (1%) and D-pinitol (50 mM), before slow drying, Rep 1
[6] = 3 days transport of sucrose (1%) and D-pinitol (50 mM), before slow drying, Rep 2
[7] = 3 days transport of sucrose (1%) and myo-inositol (50 mM), after 2 days slow drying, Rep 1
[8] = 3 days transport of sucrose (1%) and myo-inositol (50 mM), after 2 days slow drying, Rep 2
[9] = 3 days transport of sucrose (1%) and myo-inositol (50 mM), after 4 days slow drying, Rep 1
[10] = 3 days transport of sucrose (1%) and myo-inositol (50 mM), after 4 days slow drying, Rep 2
[11] = 3 days transport of sucrose (1%) and myo-inositol (50 mM), after 14 days slow drying, Rep 1
[12] = 3 days transport of sucrose (1%) and myo-inositol (50 mM), after 14 days slow drying, Rep 2
[13] = 3 days transport of sucrose (1%) and myo-inositol (50 mM), before slow drying, Rep 1
[14] = 3 days transport of sucrose (1%) and myo-inositol (50 mM), before slow drying, Rep 2
[15] = 3 days transport of sucrose (1%) without cyclitols, after 2 days slow drying, Rep 1
[16] = 3 days transport of sucrose (1%) without cyclitols, after 2 days slow drying, Rep 2
[17] = 3 days transport of sucrose (1%) without cyclitols, after 4 days slow drying, Rep 1
[18] = 3 days transport of sucrose (1%) without cyclitols, after 4 days slow drying, Rep 2
[19] = 3 days transport of sucrose (1%) without cyclitols, after 14 days slow drying, Rep 1
[20] = 3 days transport of sucrose (1%) without cyclitols, after 14 days slow drying, Rep 2
[21] = 3 days transport of sucrose (1%) without cyclitols, before slow drying, Rep 1
[22] = 3 days transport of sucrose (1%) without cyclitols, before slow drying, Rep 2

SMILES: OCC1O[C@H](OC2C(O)[C@H](O)C(O)C(O)[C@@H]2O)C(O)C(O)[C@H]1O (stereo partly drawn) [Fagopyritol B1, α-D-galactopyranosyl-(1→2)-1D-chiro-inositol]
- Accumulation of soluble carbohydrates in soybean axis [1]: 5.79 μg/axis
- Accumulation of soluble carbohydrates in soybean cotyledon [1]: 51.96 μg/cotyledon
- Accumulation of soluble carbohydrates in soybean seed coat [1]: 1.66 μg/seed coat
- Accumulation of soluble carbohydrates in soybean axis [2]: 4.01 μg/axis
- Accumulation of soluble carbohydrates in soybean cotyledon [2]: 69.76 μg/cotyledon
- Accumulation of soluble carbohydrates in soybean seed coat [2]: 1.66 μg/seed coat
- Accumulation of soluble carbohydrates in soybean axis [3]: 6.41 μg/axis
- Accumulation of soluble carbohydrates in soybean cotyledon [3]: 29.66 μg/cotyledon
- Accumulation of soluble carbohydrates in soybean seed coat [3]: 4.07 μg/seed coat
- Accumulation of soluble carbohydrates in soybean axis [4]: 8.76 μg/axis
- Accumulation of soluble carbohydrates in soybean cotyledon [4]: 51.85 μg/cotyledon
- Accumulation of soluble carbohydrates in soybean seed coat [4]: 10.12 μg/seed coat
- Accumulation of soluble carbohydrates in soybean axis [5]: 0 μg/axis
- Accumulation of soluble carbohydrates in soybean cotyledon [5]: 0 μg/cotyledon
- Accumulation of soluble carbohydrates in soybean axis [6]: 0 μg/axis
- Accumulation of soluble carbohydrates in soybean cotyledon [6]: 3.39 μg/cotyledon
- Accumulation of soluble carbohydrates in soybean axis [7]: 3.15 μg/axis
- Accumulation of soluble carbohydrates in soybean cotyledons [7]: 7.36 μg/cotyledon
- Accumulation of soluble carbohydrates in soybean seed coats [7]: 3.04 μg/seed coat
- Accumulation of soluble carbohydrates in soybean axis [8]: 5.91 μg/axis
- Accumulation of soluble carbohydrates in soybean cotyledons [8]: 14.06 μg/cotyledon
- Accumulation of soluble carbohydrates in soybean seed coats [8]: 1.97 μg/seed coat
- Accumulation of soluble carbohydrates in soybean axis [9]: 6.25 μg/axis
- Accumulation of soluble carbohydrates in soybean cotyledons [9]: 29.15 μg/cotyledon
- Accumulation of soluble carbohydrates in soybean axis [10]: 7.43 μg/axis
- Accumulation of soluble carbohydrates in soybean cotyledons [10]: 86.71 μg/cotyledon
- Accumulation of soluble carbohydrates in soybean seed coats [10]: 1.90 μg/seed coat
- Accumulation of soluble carbohydrates in soybean axis [11]: 11.14 μg/axis
- Accumulation of soluble carbohydrates in soybean cotyledons [11]: 50.31 μg/cotyledon
- Accumulation of soluble carbohydrates in soybean seed coats [11]: 5.51 μg/seed coat
- Accumulation of soluble carbohydrates in soybean axis [12]: 6.13 μg/axis
- Accumulation of soluble carbohydrates in soybean cotyledons [12]: 49.29 μg/cotyledon
- Accumulation of soluble carbohydrates in soybean seed coats [12]: 6.47 μg/seed coat
- Accumulation of soluble carbohydrates in soybean axis [13]: 0 μg/axis
- Accumulation of soluble carbohydrates in soybean cotyledons [13]: 0 μg/cotyledon
- Accumulation of soluble carbohydrates in soybean axis [14]: 0 μg/axis
- Accumulation of soluble carbohydrates in soybean cotyledons [14]: 0 μg/cotyledon
- Accumulation of soluble carbohydrates in soybean axis [15]: 3.51 μg/axis
- Accumulation of soluble carbohydrates in soybean cotyledon [15]: 4.72 μg/cotyledon
- Accumulation of soluble carbohydrates in soybean seed coats [15]: 3.43 μg/seed coat
- Accumulation of soluble carbohydrates in soybean axis [16]: 5.52 μg/axis
- Accumulation of soluble carbohydrates in soybean cotyledon [16]: 13.12 μg/cotyledon
- Accumulation of soluble carbohydrates in soybean seed coats [16]: 3.27 μg/seed coat
- Accumulation of soluble carbohydrates in soybean axis [17]: 7.09 μg/axis
- Accumulation of soluble carbohydrates in soybean cotyledon [17]: 72.21 μg/cotyledon
- Accumulation of soluble carbohydrates in soybean seed coats [17]: 1.69 μg/seed coat
- Accumulation of soluble carbohydrates in soybean axis [18]: 6.40 μg/axis
- Accumulation of soluble carbohydrates in soybean cotyledon [18]: 62.04 μg/cotyledon
- Accumulation of soluble carbohydrates in soybean seed coats [18]: 5.41 μg/seed coat
- Accumulation of soluble carbohydrates in soybean axis [19]: 8.41 μg/axis
- Accumulation of soluble carbohydrates in soybean cotyledon [19]: 83.93 μg/cotyledon
- Accumulation of soluble carbohydrates in soybean seed coats [19]: 2.54 μg/seed coat
- Accumulation of soluble carbohydrates in soybean axis [20]: 4.98 μg/axis
- Accumulation of soluble carbohydrates in soybean cotyledon [20]: 57.10 μg/cotyledon
- Accumulation of soluble carbohydrates in soybean seed coats [20]: 3.44 μg/seed coat
- Accumulation of soluble carbohydrates in soybean axis [21]: 1.70 μg/axis
- Accumulation of soluble carbohydrates in soybean cotyledon [21]: 1.89 μg/cotyledon
- Accumulation of soluble carbohydrates in soybean axis [22]: 0 μg/axis
- Accumulation of soluble carbohydrates in soybean cotyledon [22]: 2.10 μg/cotyledon
- increase after feeding D-chiro-inositol (printed 'in seed coats' in the paragraph on axis tissues of dry seeds): 10 fold
